Reference: PubChem BioAssay AID1259285 (Sanger Institute, 2017)
Here is one part, drawn at random, of 794 reagents. Over the whole deposit, 20 (2.5%) were called active. 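Calls rest on the drug-free arm alone and ignore synergy scores; viability ratios seem to be capped at 1.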 Unmarked entries are inactive. Reagents against one gene are numbered here. Further read-outs or replicates are left out here. The record does not give: the amount of reagent, the time to read-out.

Screen: 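Kinase knock-downs that reduce colorectal cancer cell viability or act with drugs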 (primary screen)
System: human HCC56 colorectal cancer cells
Reagent: siRNA pool against human genes
Treatment: DMSO vehicle, or anchor drug BYL719 at 1 µM, cetuximab at 5 µg/ml, or trametinib at 10 nM
Detection: 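Viability as a ratio to non-targeting pool wells, averaged over replicates and turned into a robust z-score; synergy scores with BYL719, cetuximab or trametinib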
Reading the numbers: viability robust z-score, no drug: higher = more viable cells, weaker knock-down effect; viability vs non-targeting pool, no drug: higher = more viable cells; synergy score with BYL719: higher = stronger combined killing with BYL719; synergy score with cetuximab: higher = stronger combined killing with cetuximab
Call rule: 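a knock-down counts as essential if its viability z-score without drug is under -3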
Calls: active = essential without drug; inactive = no change without drug

Gene,reagent no.,"viability robust z-score, no drug","viability vs non-targeting pool, no drug",synergy score with BYL719,synergy score with cetuximab
AGK,1,0.458,1,-0.0206,-0.142
DDR1,1,0.458,1,-0.162,-0.142
TWF2,1,0.458,1,0.087,-0.0149
ANKK1,1,0.458,1,-0.029,-0.134
PTK2B,1,0.458,1,0.0145,-0.0511
STYK1,1,0.0285,0.963,-0.0661,-0.063
HIPK2,1,0.458,1,-0.162,-0.0519
NR4A2,1,-4.87 (active),0.542,-0.0376,-0.0191
WNK4,1,0.458,1,-0.162,-0.142
TTK,1,0.0345,0.964,0.0257,-0.0376
ABL2,1,0.458,1,-0.162,-0.142
CDKN2C,1,-1.05,0.871,-0.0556,-0.0208
MAP4K1,1,-0.834,0.889,0.0584,0.0719
TAOK2,1,0.458,1,0.0113,-0.142
KRAS,1,-4.68 (active),0.559,-0.0286,0.0574
SMAD4,1,0.458,1,0.0538,0.0278
KSR1,1,-3.77 (active),0.637,-0.0378,0
CAD,1,0.458,1,-0.162,-0.142
PIP5K1A,1,-0.455,0.922,0.076,0.192
IRAK2,1,0.458,1,-0.162,-0.142
PGK2,1,0.458,1,-0.162,-0.142
STK38L,1,-2.22,0.77,-0.103,-0.163
MAP3K10,1,0.458,1,-0.162,-0.142
NTRK3,1,0.458,1,-0.162,-0.142
CDK13,1,0.458,1,-0.0866,-0.142
COMMD3,1,0.458,1,-0.118,-0.142
PIK3C2A,1,-2.53,0.743,-0.125,-0.174
CSNK1G1,1,0.458,1,-0.00816,-0.142
PANK4,1,-2.4,0.755,-0.0751,-0.148
PRKACB,1,-0.341,0.931,0.0778,0.0733
PCK1,1,0.458,1,-0.0126,-0.0703
ILK,1,0.458,1,-0.133,-0.142
ILK,2,0.458,1,0.0322,0.0696
CRIM1,1,0.458,1,-0.0571,-0.142
EPHA4,1,0.458,1,0.0749,0.0251
ROR2,1,0.458,1,-0.005,0.0744
STK32C,1,0.458,1,-0.107,-0.142
JAK3,1,0.458,1,0.00988,0.037
KCNH8,1,-1.8,0.806,0.0157,0.0885
STK17A,1,-1.56,0.826,-0.00716,-0.0582
DYRK3,1,0.458,1,-0.162,-0.065
SCYL1,1,0.458,1,-0.0714,-0.142
KSR2,1,-2.28,0.765,-0.205,-0.0608
PDK2,1,0.458,1,-0.162,-0.142
CIB2,1,-2.57,0.74,-0.0477,0.0623
FCSK,1,0.458,1,0.0462,0.083
MAPK13,1,0.458,1,-0.011,-0.0112
GRK5,1,0.458,1,0.118,-0.0523
CDKL4,1,-0.386,0.927,0.137,0.0492
PRKCG,1,0.339,0.99,0.0903,0.107

No new results follow: 5 of the entries above.
Gene,reagent no.,"viability robust z-score, no drug","viability vs non-targeting pool, no drug",synergy score with BYL719,synergy score with cetuximab
ABL2,1,0.458,1,-0.162,-0.142
CDKN2C,1,-1.05,0.871,-0.0556,-0.0208
MAP4K1,1,-0.834,0.889,0.0584,0.0719
TAOK2,1,0.458,1,0.0113,-0.142
KRAS,1,-4.68 (active),0.559,-0.0286,0.0574
